Results reported in the supplement of paper PMC12889115.
This is one part of the list. Values are raw readings; no control value is given beside them.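 In the initial screen, polymyxin B was used at a concentration that permeabilizes Salmonella's outer membrane but not its inner membrane. Maximum growth was set by DMSO wells with or without polymyxin B. Since plates varied, data were ranked per plate, and compounds giving the lowest OD600 advanced as hits.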

System: Salmonella enterica serovar Typhimurium SL1344
Test: bacterial growth OD600 after 18 h with compound and polymyxin B; higher = more bacterial growth (less inhibition)
Settings: 50 µM, Mueller-Hinton broth

SMILES	bacterial growth OD600 (polymyxin B 0.75 µg/mL)	bacterial growth OD600 (polymyxin B 1 µg/mL)
Cc1cnc(C)c(N2CCN(C(=O)CCC3(Cc4ccc(Cl)cc4)CCC(=O)N3)CC2)n1 (stereo not given)	1.01	
Cn1cc(CN2CCCC(Nc3ccccc3)C2)cn1 (stereo not given)		1.22
c1cnc(Oc2ccc(CNCc3cccnc3N3CCOCC3)cc2)nc1		0.794
O=C1CCCN1CCCC(=O)N1CC[C@@H](N2CCN(c3ccccc3F)CC2)[C@H](O)C1		0.89
COC(=O)c1cc(CNC(=O)c2ccccn2)cc(NC(=O)/C=C/c2cccc(F)c2)c1	0.478	
COc1ccc(CC(=O)NCC2CCCN(Cc3ccc(F)c(OC)c3)C2)cc1 (stereo not given)		0.962
O=C(CC1(c2ccccc2F)CC(=O)N(C2CCCC2)C1=O)N(CC1CCC1)CC1CCCO1 (stereo not given)	0	
C=CCC(O)(CC=C)C(C)NC(=O)CCC1(Cc2ccc(OC)cc2F)CCC(=O)N1 (stereo not given)	0.881	
CCN1CCCC1CNC(=O)CCC1CCN(Cc2nc3c(s2)CCCC3)CC1 (stereo not given)		1.06
Cc1ccccc1CCC1CCCN(Cc2nccn2C)C1 (stereo not given)	0.78	
COc1ccc(OCc2cc(C(=O)N(C)Cc3cc(C)[nH]n3)n[nH]2)c(Cl)c1		0.932
O=C(CCc1nnc(CCCCc2ccccc2)o1)N1CCOc2ccccc2C1		0.633
CCn1nc(C)c(CN2CCCC(CNS(=O)(=O)c3ccc(OC)cc3)C2)c1C (stereo not given)		1.05
CN(C(=O)c1ccsc1)C(Cc1ccccc1)C1CCN(C(=O)c2cccc(Cl)c2)CC1 (stereo not given)	0.004	
Cc1cc(C)n(Cc2cc(C(=O)NCC3(N(C)C)CCCCC3)n[nH]2)n1		0.863
CCCN(Cc1nc(-c2ccc(F)c(OC)c2)oc1C)CC1CCCO1 (stereo not given)	0.774	
CN(CCc1cnn(C)c1)C(=O)c1cc(NC(=O)CC2CCCC2)cc2nc(C3CCCO3)n(C)c12 (stereo not given)	0.827	
COc1cccc(C(=O)N2CCCC(c3nc(-c4ccncc4)ncc3-c3ccccc3C)C2)c1OC (stereo not given)	0.01	
CCOCCCNC(=O)c1ccc(OC2CCN(C(C)=O)CC2)c(OC)c1		0.942
CCOc1ccc(CN2CCCC(CO)(CCc3ccccc3)C2)cc1CO (stereo not given)	0.796	
CCCCN(C)Cc1cnc(S(=O)(=O)CC2CCCCC2)n1CCOC		0.039
CN(Cc1ccc(F)cc1)c1ccc(OCC(=O)N2CCN(c3nc4ccccc4s3)CC2)nn1	0.008	
COCCN(C(=O)c1ccc(OC2CCN(S(C)(=O)=O)CC2)c(Cl)c1)C(C)C		1.01
Fc1cccc(C2CCCCN2Cc2nc(-c3ccccc3)no2)c1 (stereo not given)		0.337
O=C(Nc1ccnn1C1CCN(Cc2ccc(Cl)cc2)CC1)c1ccccc1		0.99
O=C(c1cc(COc2ccc(-n3cncn3)cc2)on1)N1CCC(N2CCOCC2)CC1	0.817	
CN(Cc1cccnc1)CC1(O)CCCN(Cc2cccc(F)c2F)C1=O (stereo not given)		0.88
Cc1ncsc1CCCNc1ccc(-c2nc(C3CC3)no2)cn1	0.335	
COC(c1ccc2c(c1)CN(C(=O)c1scc3c1OCCO3)CCO2)C1CCCCC1 (stereo not given)	-0.002	
O=C(CCC1CCN(CCCC(F)(F)F)CC1)Nc1ccccc1Cl	0.869	

Reformatted as a markdown table: two of the compounds above.

| SMILES | bacterial growth OD600 (polymyxin B 0.75 µg/mL) | bacterial growth OD600 (polymyxin B 1 µg/mL) |
| --- | --- | --- |
| CN(Cc1ccc(F)cc1)c1ccc(OCC(=O)N2CCN(c3nc4ccccc4s3)CC2)nn1 | 0.008 |  |
| COCCN(C(=O)c1ccc(OC2CCN(S(C)(=O)=O)CC2)c(Cl)c1)C(C)C |  | 1.01 |
